{
  "source": "paper PMC8384837",
  "settings_in_all_cases": "yeast three-hybrid, YBZ-1, SC-Leu-His + 0.5 mM 3-AT, 4 days",
  "key": {"[1]": {"molecular_target": "T1, PUM1 PUF domain R5-AKR C1007A + R1008K + Q1011R (Homo sapiens) (UniProt Q14671)", "T1 sequence": "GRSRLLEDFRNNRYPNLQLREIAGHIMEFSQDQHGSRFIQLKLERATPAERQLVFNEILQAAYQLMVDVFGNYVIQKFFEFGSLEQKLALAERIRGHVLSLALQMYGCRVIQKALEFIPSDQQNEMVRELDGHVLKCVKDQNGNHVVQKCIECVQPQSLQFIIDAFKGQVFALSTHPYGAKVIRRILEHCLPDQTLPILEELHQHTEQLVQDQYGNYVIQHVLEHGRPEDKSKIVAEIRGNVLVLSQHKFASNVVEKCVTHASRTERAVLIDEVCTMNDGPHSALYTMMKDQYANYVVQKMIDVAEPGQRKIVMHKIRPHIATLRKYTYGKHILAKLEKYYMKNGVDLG"}, "[2]": {"molecular_target": "T2, PUM1 PUF domain R5-ASR C1007A + R1008S + Q1011R (Homo sapiens) (UniProt Q14671)", "T2 sequence": "T1 sequence with K181S"}, "[3]": {"molecular_target": "T3, PUM1 PUF domain R5-DKQ C1007D + R1008K (Homo sapiens) (UniProt Q14671)", "T3 sequence": "T1 sequence with A180D, R184Q"}, "[4]": {"molecular_target": "T4, PUM1 PUF domain R5-FRG C1007F + Q1011G (Homo sapiens) (UniProt Q14671)", "T4 sequence": "T1 sequence with A180F, K181R, R184G"}, "[5]": {"molecular_target": "T5, PUM1 PUF domain R5-FRT C1007F + Q1011T (Homo sapiens) (UniProt Q14671)", "T5 sequence": "T1 sequence with A180F, K181R, R184T"}, "[6]": {"molecular_target": "T6, PUM1 PUF domain R5-GKE C1007G + R1008K + Q1011E (Homo sapiens) (UniProt Q14671)", "T6 sequence": "T1 sequence with A180G, R184E"}, "[7]": {"molecular_target": "T7, PUM1 PUF domain R5-KAL C1007K + R1008A + Q1011L (Homo sapiens) (UniProt Q14671)", "T7 sequence": "T1 sequence with A180K, K181A, R184L"}, "[8]": {"molecular_target": "T8, PUM1 PUF domain R5-KAR C1007K + R1008A + Q1011R (Homo sapiens) (UniProt Q14671)", "T8 sequence": "T1 sequence with A180K, K181A"}, "[9]": {"molecular_target": "T9, PUM1 PUF domain R5-KGR C1007K + R1008G + Q1011R (Homo sapiens) (UniProt Q14671)", "T9 sequence": "T1 sequence with A180K, K181G"}, "[10]": {"molecular_target": "T10, PUM1 PUF domain R5-KSG C1007K + R1008S + Q1011G (Homo sapiens) (UniProt Q14671)", "T10 sequence": "T1 sequence with A180K, K181S, R184G"}, "[11]": {"molecular_target": "T11, PUM1 PUF domain R5-KSS C1007K + R1008S + Q1011S (Homo sapiens) (UniProt Q14671)", "T11 sequence": "T1 sequence with A180K, K181S, R184S"}, "[12]": {"molecular_target": "T12, PUM1 PUF domain R5-NAR C1007N + R1008A + Q1011R (Homo sapiens) (UniProt Q14671)", "T12 sequence": "T1 sequence with A180N, K181A"}, "[13]": {"molecular_target": "T13, PUM1 PUF domain R5-NSR C1007N + R1008S + Q1011R (Homo sapiens) (UniProt Q14671)", "T13 sequence": "T1 sequence with A180N, K181S"}, "[14]": {"molecular_target": "T14, PUM1 PUF domain R5-RGR C1007R + R1008G + Q1011R (Homo sapiens) (UniProt Q14671)", "T14 sequence": "T1 sequence with A180R, K181G"}, "[15]": {"molecular_target": "T15, PUM1 PUF domain R5-RKC C1007R + R1008K + Q1011C (Homo sapiens) (UniProt Q14671)", "T15 sequence": "T1 sequence with A180R, R184C"}, "[16]": {"molecular_target": "T16, PUM1 PUF domain R5-RQD C1007R + R1008Q + Q1011D (Homo sapiens) (UniProt Q14671)", "T16 sequence": "T1 sequence with A180R, K181Q, R184D"}, "[17]": {"molecular_target": "T17, PUM1 PUF domain R5-RSK C1007R + R1008S + Q1011K (Homo sapiens) (UniProt Q14671)", "T17 sequence": "T1 sequence with A180R, K181S, R184K"}, "[18]": {"molecular_target": "T18, PUM1 PUF domain R5-RSR C1007R + R1008S + Q1011R (Homo sapiens) (UniProt Q14671)", "T18 sequence": "T1 sequence with A180R, K181S"}, "[19]": {"molecular_target": "T19, PUM1 PUF domain R5-SVT C1007S + R1008V + Q1011T (Homo sapiens) (UniProt Q14671)", "T19 sequence": "T1 sequence with A180S, K181V, R184T"}, "[20]": {"molecular_target": "T20, PUM1 PUF domain R5-WRD C1007W + Q1011D (Homo sapiens) (UniProt Q14671)", "T20 sequence": "T1 sequence with A180W, K181R, R184D"}},
  "note": "Substitutions are numbered along the chain they refer to. Some of the results follow.",
  "data": [
    {"sequence": "GGCUAGAACUAGUGGAUCCCCCGGCGCCCGGCGGCUCGAGCCCGGGUAAGUGUAAAUAGUCUGCAUGCCGCCGGGCGCCAUGCCUGCAGGUCGACUCUAGAAAACAUG", "values": [
      {"measurement": "binding signal (log2 enrichment (interaction score))", "setting": "[1]", "result": 0.01},
      {"measurement": "binding signal (log2 enrichment (interaction score))", "setting": "[2]", "result": 0.05},
      {"measurement": "binding signal (log2 enrichment (interaction score))", "setting": "[3]", "result": 0.09},
      {"measurement": "binding signal (log2 enrichment (interaction score))", "setting": "[4]", "result": 0.04},
      {"measurement": "binding signal (log2 enrichment (interaction score))", "setting": "[5]", "result": 0.12},
      {"measurement": "binding signal (log2 enrichment (interaction score))", "setting": "[6]", "result": -0.06},
      {"measurement": "binding signal (log2 enrichment (interaction score))", "setting": "[7]", "result": -0},
      {"measurement": "binding signal (log2 enrichment (interaction score))", "setting": "[8]", "result": -0},
      {"measurement": "binding signal (log2 enrichment (interaction score))", "setting": "[9]", "result": 0.04},
      {"measurement": "binding signal (log2 enrichment (interaction score))", "setting": "[10]", "result": 0.06},
      {"measurement": "binding signal (log2 enrichment (interaction score))", "setting": "[11]", "result": -0.04},
      {"measurement": "binding signal (log2 enrichment (interaction score))", "setting": "[12]", "result": 0.01},
      {"measurement": "binding signal (log2 enrichment (interaction score))", "setting": "[13]", "result": -0.02},
      {"measurement": "binding signal (log2 enrichment (interaction score))", "setting": "[14]", "result": 0.16},
      {"measurement": "binding signal (log2 enrichment (interaction score))", "setting": "[15]", "result": -0},
      {"measurement": "binding signal (log2 enrichment (interaction score))", "setting": "[16]", "result": 0.15},
      {"measurement": "binding signal (log2 enrichment (interaction score))", "setting": "[17]", "result": 0.02},
      {"measurement": "binding signal (log2 enrichment (interaction score))", "setting": "[18]", "result": -0.25},
      {"measurement": "binding signal (log2 enrichment (interaction score))", "setting": "[19]", "result": 0.04},
      {"measurement": "binding signal (log2 enrichment (interaction score))", "setting": "[20]", "result": -1.4}
    ]}
  ]
}
